Measured values as given in patent US11833178B2, “Bifidobacterium longum for treating obesity and weight management” (priority 2017, dated 2023).
Converted amounts (≈) assume the structure as drawn.

System: Bifidobacterium longum APC1472
Assay: Antibiotic susceptibility (VetMIC plates, ISO 10932:2010)
Type: cell-based, Bifidobacterium longum ssp. longum
Settings: range of MICs for duplicate experiments, 37° C., 48 h
Method: Antibiotic susceptibility was tested with […] plates Lact-1 and Lact-2 supplied from SVA (National Veterinary Institute, Uppsala, Sweden). The procedure followed the international standard of antibiotic testing for Bifidobacteria (ISO 10932:2010/IDF 223:2010). Colonies were suspended to OD 0.16-0.2 (at 625 nm) in LSM-Cys media (90% (v/v) ISO-sensitest (Ocon chemicals), 10% (v/v) MRS broth (Difco laboratories, Detroit, MI), supplemented with 0.3 g/L L-Cysteine (Sigma Aldrich) from strains grown on RCM agar anaerobically incubated at 37° C. for 48-72 h. Attained cell density corresponding to 3×10^8 CFU/ml was further diluted 1000 fold to a cell density of 3×10^5 CFU/ml. One hundred of cell suspension was aliquoted into 96-well plates within 30 min with a multichannel pipette to give 3×10^4 CFU/well. Plates were incubated at 37° C. for 48 h. After 48 h the plates were read visually. MICs were determined as 80% or more reduction in pellet, compared to positive control lane. Borderline cases were interpreted by visual examples from “Methods for Antimicrobial Susceptibility Testing of Anaerobic Bacteria: Approved Standard” (CLSI, 7th edition).

MIC: 0.06 to 0.12 µg/mL (≈ 0.141 to 0.282 µM)
Compound: CCC[C@@H]1C[C@@H](C(=O)N[C@@H]([C@H]2O[C@H](SC)[C@H](O)[C@@H](O)[C@H]2O)[C@H](C)Cl)N(C)C1 [Cl, Clindamycin]
